Values of other authors as cited in patent publication US20060269579A1, “Compositions for treating osteoarthritis” (Musculoskeletal Research LLC, priority 2005, published 2006).
At least one compound was matched to its structure with a doubt left.

Tested on: effect of IL-1 on synovial cells
Details: Kolomytkin et al. 1997; cited from earlier work

For COC(=O)C1=C(C)NC(C)=C(C(=O)OC)C1c1ccccc1[N+](=O)[O-] [nifedipine], the “interference with the effect of IL-1 on synovial cells” value is listed as “capable of interfering with the effect of IL-1 on synovial cells”.
